Laboratory results reported in patent publication US8686113B2 (priority 2009, dated 2014).
Some of these results come from one statement about several compounds together. Non-standard residues stand in square brackets, D forms with d. Residues, ends and D or L forms follow the SMILES beside them. Hyp = O=C(O)[C@@H]1C[C@@H](O)CN1; Orn = NCCC[C@H](N)C(=O)O

System: Escherichia coli DSM 10233
Method: The minimum inhibitory concentrations (MIC) of the antimicrobial peptides and peptide derivatives were determined in microdilution assays. These used a continuous peptide dilution in sterile flat-bottomed 96-well microtiter plates (polystyrene, Greiner Bio-One GmbH, Frickenhausen, Germany) and a total volume of 100 μL per well. The aqueous peptide or peptidomimetic solutions were diluted with 1% TSB water, to obtain a final concentration of 256 μg/mL. 50 μL of the peptide or peptidomimetic solution was pipetted into the first well of each series and stirred. From this solution, 50 μL was transferred to the second well, stirred and again 50 μL was transferred to the next well, and so on. A double dilution series is obtained, beginning at 256 μg/mL in the first well to 125 ng/mL in the twelfth well. The bacteria, e.g. E. coli BL21 A1, were cultured overnight at 37° C. in nutrient broth (NB, Carl Roth GmbH+Co. KG, Karlsruhe, Germany). […] The plates were incubated at 37° C. for 20 h and then the absorption was measured at 595 nm with a TECAN microtiter plate spectrophotometer (Tecan Trading AG, Mannedorf, Switzerland). The MIC values of all peptides and peptidomimetics were determined in triplicate. […]

Compound	times higher activity against E. coli DSM 10233 than oncocin
CC[C@H](C)[C@H](NC(=O)[C@H](Cc1ccc(O)cc1)NC(=O)[C@H](CC(N)=O)NC(=O)[C@@H](N)CCCN)C(=O)N1C[C@H](O)C[C@H]1C(=O)N[C@@H](CCCNC(=N)N)C(=O)N1CCC[C@H]1C(=O)N1CCC[C@H]1C(=O)N[C@@H](CCCNC(=N)N)C(=O)N1CCC[C@H]1C(=O)N[C@@H](CCCNC(=N)N)C(=O)N1CCC[C@H]1C(=O)N[C@@H](CC(C)C)C(=O)N[C@@H](Cc1ccc(O)cc1)C(=O)N1CCC[C@H]1C(=O)N1CCC[C@H]1C(=O)N[C@@H](CCCCN)C(=O)N[C@@H](CC(=O)O)C(=O)N[C@H](C(N)=O)C(C)C [SEQ ID NO. 114] (H-[Orn]NYI[Hyp]RPPRPRPLYPPKDV-NH2)	up to 16 times
CC[C@H](C)[C@H](NC(=O)[C@H](Cc1ccc(O)cc1)NC(=O)[C@H](CC(N)=O)NC(=O)[C@@H](N)CCCN)C(=O)N[C@@H](CCCN)C(=O)N[C@@H](CCCNC(=N)N)C(=O)N1CCC[C@H]1C(=O)N1CCC[C@H]1C(=O)N[C@@H](CCCNC(=N)N)C(=O)N1CCC[C@H]1C(=O)N[C@@H](CCCNC(=N)N)C(=O)N1CCC[C@H]1C(=O)N[C@@H](CC(C)C)C(=O)N[C@@H](Cc1ccc(O)cc1)C(=O)N1CCC[C@H]1C(=O)N1CCC[C@H]1C(=O)N[C@@H](CCCCN)C(=O)N[C@@H](CC(=O)O)C(=O)N[C@H](C(N)=O)C(C)C [SEQ ID NO. 113, ONYIORPPRPRPLYPPKDV-NH2] (H-[Orn]NYI[Orn]RPPRPRPLYPPKDV-NH2)	up to 16 times
